# The other results are listed elsewhere or left out.
# By UniProt entry, the sequences of proteins in these tests, tags left out. Where a name states a change or a piece, a line headed by the entry shows the natural chain unless it says otherwise.
# UniProt Q9BRU9: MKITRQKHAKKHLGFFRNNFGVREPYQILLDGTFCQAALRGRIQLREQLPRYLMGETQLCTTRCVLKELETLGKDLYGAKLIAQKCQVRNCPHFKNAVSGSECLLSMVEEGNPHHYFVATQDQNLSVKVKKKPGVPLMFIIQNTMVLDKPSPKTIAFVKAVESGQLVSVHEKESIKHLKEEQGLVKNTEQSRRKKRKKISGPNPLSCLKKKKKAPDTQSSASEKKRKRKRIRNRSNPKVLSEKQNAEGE
# UniProt O43592: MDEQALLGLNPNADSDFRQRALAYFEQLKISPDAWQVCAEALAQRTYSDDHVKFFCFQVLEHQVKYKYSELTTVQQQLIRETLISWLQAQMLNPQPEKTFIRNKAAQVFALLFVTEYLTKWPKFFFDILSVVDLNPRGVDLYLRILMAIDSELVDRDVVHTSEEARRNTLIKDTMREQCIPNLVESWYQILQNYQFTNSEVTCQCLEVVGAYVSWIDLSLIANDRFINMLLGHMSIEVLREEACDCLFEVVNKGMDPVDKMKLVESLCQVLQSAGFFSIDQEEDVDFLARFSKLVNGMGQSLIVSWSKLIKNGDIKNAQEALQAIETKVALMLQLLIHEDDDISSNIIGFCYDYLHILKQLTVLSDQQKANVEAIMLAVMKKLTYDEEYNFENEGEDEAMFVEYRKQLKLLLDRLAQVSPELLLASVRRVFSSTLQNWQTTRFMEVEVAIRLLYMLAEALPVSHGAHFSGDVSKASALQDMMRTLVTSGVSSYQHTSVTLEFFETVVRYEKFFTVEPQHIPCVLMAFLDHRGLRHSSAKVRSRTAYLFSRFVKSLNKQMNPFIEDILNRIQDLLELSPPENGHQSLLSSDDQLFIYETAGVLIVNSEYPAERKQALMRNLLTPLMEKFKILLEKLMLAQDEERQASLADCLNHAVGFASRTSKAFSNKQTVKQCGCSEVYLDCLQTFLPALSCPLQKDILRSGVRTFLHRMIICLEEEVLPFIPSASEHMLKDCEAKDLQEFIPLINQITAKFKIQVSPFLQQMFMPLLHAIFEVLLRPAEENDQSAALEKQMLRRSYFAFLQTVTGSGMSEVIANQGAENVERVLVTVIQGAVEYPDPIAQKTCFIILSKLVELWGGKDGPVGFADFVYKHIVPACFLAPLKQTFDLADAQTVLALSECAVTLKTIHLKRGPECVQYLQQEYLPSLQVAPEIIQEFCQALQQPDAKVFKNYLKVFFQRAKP
# UniProt Q6N043: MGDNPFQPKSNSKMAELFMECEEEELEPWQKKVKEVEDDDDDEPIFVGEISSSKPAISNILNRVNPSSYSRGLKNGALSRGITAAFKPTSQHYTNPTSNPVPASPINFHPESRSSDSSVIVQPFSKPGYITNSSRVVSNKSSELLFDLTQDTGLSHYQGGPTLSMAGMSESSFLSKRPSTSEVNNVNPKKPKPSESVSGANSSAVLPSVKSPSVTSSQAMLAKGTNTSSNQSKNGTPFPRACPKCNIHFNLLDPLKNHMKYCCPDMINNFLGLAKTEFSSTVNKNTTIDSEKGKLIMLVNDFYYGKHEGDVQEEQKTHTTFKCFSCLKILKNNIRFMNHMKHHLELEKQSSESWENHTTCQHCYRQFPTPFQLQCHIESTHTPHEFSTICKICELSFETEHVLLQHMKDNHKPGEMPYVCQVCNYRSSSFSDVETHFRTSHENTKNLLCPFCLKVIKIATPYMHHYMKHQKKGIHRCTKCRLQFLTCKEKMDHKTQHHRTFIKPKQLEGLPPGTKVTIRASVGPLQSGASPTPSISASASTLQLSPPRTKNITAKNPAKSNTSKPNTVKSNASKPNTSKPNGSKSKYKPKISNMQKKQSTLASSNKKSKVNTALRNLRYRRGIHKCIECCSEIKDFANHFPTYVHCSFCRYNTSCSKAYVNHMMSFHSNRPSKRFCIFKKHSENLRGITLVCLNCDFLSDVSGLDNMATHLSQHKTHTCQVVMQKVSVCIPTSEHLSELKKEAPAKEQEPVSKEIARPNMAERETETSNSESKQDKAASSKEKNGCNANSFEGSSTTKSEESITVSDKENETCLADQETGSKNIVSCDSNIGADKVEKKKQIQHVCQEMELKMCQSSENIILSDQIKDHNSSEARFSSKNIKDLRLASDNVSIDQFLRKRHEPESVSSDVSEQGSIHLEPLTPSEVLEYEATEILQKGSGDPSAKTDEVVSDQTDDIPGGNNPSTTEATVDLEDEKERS
# UniProt Q7Z5K2: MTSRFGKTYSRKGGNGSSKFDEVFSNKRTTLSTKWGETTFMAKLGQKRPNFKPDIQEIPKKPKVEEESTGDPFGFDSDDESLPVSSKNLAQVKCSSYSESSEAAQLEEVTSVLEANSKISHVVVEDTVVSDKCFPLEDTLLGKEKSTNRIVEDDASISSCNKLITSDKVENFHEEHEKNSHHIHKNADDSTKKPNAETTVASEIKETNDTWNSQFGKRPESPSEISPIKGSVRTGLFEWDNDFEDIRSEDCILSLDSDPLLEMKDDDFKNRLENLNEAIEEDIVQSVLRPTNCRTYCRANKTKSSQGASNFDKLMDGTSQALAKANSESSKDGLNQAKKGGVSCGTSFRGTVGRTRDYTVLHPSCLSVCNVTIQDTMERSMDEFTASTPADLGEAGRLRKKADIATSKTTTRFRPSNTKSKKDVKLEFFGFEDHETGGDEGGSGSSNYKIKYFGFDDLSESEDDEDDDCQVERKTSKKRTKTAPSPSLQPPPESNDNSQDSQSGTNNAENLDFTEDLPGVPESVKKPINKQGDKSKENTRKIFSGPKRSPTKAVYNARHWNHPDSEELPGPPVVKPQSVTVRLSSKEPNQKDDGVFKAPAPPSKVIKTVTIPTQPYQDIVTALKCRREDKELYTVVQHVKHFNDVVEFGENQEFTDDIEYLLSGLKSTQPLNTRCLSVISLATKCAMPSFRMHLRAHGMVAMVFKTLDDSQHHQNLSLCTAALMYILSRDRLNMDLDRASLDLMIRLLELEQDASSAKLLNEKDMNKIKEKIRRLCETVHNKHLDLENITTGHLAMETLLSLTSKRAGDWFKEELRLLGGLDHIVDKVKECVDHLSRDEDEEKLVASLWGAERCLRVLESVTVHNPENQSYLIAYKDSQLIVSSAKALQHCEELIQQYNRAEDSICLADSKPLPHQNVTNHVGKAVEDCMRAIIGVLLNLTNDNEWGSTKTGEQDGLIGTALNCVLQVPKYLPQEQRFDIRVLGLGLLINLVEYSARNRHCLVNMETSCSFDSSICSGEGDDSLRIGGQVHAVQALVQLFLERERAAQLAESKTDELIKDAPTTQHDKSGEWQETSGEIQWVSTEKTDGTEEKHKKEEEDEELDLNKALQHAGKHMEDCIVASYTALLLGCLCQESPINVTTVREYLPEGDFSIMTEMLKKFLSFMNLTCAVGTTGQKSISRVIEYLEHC
# UniProt O75379: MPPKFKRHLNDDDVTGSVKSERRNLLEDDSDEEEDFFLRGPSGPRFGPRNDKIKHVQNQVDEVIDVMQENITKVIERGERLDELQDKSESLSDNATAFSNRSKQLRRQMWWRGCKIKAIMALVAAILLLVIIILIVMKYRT
# UniProt Q9NW82: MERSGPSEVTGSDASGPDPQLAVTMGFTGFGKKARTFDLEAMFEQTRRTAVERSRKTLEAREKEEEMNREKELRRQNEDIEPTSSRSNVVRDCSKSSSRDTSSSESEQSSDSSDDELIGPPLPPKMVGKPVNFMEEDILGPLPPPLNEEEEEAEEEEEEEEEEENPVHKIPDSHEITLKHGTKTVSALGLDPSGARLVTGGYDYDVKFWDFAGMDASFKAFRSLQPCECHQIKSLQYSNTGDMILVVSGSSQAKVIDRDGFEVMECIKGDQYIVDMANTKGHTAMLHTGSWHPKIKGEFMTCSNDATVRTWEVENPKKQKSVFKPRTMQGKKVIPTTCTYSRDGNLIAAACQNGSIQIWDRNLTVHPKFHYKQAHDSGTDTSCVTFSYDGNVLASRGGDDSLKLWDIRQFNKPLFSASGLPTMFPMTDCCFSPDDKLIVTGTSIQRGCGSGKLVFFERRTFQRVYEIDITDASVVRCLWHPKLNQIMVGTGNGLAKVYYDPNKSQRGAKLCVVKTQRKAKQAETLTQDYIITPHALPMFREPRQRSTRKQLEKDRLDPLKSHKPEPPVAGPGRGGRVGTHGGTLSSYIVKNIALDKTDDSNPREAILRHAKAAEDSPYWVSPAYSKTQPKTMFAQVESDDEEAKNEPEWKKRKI
# UniProt O75717: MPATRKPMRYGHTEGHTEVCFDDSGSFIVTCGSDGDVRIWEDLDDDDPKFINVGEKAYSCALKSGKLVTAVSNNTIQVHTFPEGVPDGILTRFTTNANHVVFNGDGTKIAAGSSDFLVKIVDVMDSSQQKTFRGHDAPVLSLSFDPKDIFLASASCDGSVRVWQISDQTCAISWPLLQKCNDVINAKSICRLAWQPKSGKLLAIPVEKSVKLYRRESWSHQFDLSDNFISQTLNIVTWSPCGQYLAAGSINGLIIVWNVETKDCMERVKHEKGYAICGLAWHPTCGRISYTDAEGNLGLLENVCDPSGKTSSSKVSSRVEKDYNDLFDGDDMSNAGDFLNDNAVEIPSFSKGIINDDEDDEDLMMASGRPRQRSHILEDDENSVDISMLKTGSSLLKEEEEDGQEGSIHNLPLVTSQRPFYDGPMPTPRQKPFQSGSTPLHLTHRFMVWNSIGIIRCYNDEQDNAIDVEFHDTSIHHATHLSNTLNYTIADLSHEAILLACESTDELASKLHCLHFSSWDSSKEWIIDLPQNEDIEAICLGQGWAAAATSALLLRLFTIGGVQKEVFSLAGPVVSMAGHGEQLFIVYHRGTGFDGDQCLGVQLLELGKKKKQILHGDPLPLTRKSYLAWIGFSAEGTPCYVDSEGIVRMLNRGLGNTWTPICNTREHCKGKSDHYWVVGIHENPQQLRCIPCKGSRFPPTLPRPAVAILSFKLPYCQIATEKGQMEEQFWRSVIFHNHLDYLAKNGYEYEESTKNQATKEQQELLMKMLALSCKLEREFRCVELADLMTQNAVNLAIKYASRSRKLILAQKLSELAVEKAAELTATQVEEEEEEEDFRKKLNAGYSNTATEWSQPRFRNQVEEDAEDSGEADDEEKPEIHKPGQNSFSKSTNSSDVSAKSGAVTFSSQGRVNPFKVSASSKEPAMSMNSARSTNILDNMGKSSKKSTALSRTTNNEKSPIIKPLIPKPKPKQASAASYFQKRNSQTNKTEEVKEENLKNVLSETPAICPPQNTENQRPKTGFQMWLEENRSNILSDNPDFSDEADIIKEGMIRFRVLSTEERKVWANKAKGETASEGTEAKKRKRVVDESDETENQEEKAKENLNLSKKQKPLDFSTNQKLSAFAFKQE
# UniProt Q9UQR1: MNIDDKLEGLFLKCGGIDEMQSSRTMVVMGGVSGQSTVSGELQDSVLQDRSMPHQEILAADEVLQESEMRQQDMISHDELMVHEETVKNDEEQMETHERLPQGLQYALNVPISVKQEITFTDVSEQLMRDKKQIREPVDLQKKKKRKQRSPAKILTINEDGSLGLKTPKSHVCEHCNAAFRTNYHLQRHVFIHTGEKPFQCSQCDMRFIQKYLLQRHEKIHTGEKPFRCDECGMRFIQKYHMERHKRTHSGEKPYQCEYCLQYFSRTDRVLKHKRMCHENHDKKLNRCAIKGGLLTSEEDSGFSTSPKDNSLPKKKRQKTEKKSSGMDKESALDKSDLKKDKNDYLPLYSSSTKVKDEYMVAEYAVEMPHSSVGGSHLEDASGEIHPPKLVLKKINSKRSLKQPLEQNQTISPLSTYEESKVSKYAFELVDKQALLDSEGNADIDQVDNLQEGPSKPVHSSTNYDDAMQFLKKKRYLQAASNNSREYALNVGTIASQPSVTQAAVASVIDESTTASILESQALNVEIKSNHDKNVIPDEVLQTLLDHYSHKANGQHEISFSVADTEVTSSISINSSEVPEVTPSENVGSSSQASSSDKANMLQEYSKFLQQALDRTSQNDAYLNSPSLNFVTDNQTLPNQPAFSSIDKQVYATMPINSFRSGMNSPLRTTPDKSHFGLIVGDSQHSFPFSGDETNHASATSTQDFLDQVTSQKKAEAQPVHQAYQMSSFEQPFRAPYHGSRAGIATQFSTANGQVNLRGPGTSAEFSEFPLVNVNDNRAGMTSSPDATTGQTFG
# UniProt Q16670: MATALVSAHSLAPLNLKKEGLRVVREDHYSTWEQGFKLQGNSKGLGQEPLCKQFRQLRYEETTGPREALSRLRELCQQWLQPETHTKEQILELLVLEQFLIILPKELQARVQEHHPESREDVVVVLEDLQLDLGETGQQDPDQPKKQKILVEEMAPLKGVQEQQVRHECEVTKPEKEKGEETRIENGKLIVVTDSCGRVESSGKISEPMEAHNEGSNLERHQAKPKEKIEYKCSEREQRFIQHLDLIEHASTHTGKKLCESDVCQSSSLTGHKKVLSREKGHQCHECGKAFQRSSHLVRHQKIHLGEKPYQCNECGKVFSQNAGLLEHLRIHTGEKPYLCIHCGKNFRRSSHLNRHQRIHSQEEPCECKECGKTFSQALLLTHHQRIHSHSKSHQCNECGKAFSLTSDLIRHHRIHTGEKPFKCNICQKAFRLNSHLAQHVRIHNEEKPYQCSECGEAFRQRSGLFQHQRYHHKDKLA
# Compound: COc1ccc(Cn2ccc3ccc(C(=O)NO)cc32)cc1
# Assay: dose-dependent thermal stabilisation call (2D-TPP, DLPTP, 10% FDR) (binary (1 = stabilised)); higher = stabilised by the compound
# Conditions: system: HL-60 intact cells; concentration range 0.04-10 µM
row,Target,dose-dependent thermal stabilisation call
1,WDR43 (UniProt Q15061),inactive: 0
2,UTP23 (UniProt Q9BRU9),inactive: 0
3,XPNPEP3 (UniProt Q9NQH7),active: 1
4,WDR82 (UniProt Q6UXN9),inactive: 0
5,WARS2 (UniProt Q9UGM6),inactive: 0
6,XPOT (UniProt O43592),inactive: 0
7,VANGL1 (UniProt Q8TAA9),inactive: 0
8,WDR1 (UniProt O75083),inactive: 0
9,WDR13 (UniProt Q9H1Z4),inactive: 0
10,ZNF192 (UniProt Q15776),inactive: 0
11,WDR3 (UniProt Q9UNX4),inactive: 0
12,YY1 (UniProt P25490),inactive: 0
13,WAC (UniProt Q9BTA9),inactive: 0
14,WHSC2 (UniProt Q9H3P2),inactive: 0
15,XRCC6BP1 (UniProt Q9Y6H3),inactive: 0
16,WRNIP1 (UniProt Q96S55),inactive: 0
17,ZNF280D (UniProt Q6N043),inactive: 0
18,WAPAL (UniProt Q7Z5K2),inactive: 0
19,VAMP4 (UniProt O75379),inactive: 0

row,Target,dose-dependent thermal stabilisation call
1,WBP11 (UniProt Q9Y2W2),inactive: 0
2,ZMYM4 (UniProt Q5VZL5),inactive: 0
3,VPS13A (UniProt Q96RL7),inactive: 0
4,VPS8 (UniProt Q8N3P4),inactive: 0
5,WDR70 (UniProt Q9NW82),inactive: 0
6,WDR61 (UniProt Q9GZS3),inactive: 0
7,WDHD1 (UniProt O75717),inactive: 0
8,ZNF148 (UniProt Q9UQR1),inactive: 0
9,ZBTB44 (UniProt Q8NCP5),inactive: 0
10,WDR76 (UniProt Q9H967),inactive: 0
11,ZCCHC9 (UniProt Q8N567),inactive: 0
12,YARS (UniProt P54577),inactive: 0
13,WDR11 (UniProt Q9BZH6),inactive: 0
14,VPS72 (UniProt Q15906),inactive: 0
15,ZFAND1 (UniProt Q8TCF1),inactive: 0
16,ZC3HAV1 (UniProt Q7Z2W4),inactive: 0
17,WDR89 (UniProt Q96FK6),inactive: 0
18,WIPF1 (UniProt O43516),inactive: 0
19,ZNF187 (UniProt Q16670),inactive: 0

# Random excerpt: three entries already listed
row,Target,dose-dependent thermal stabilisation call
13,WAC (UniProt Q9BTA9),inactive: 0
12,YY1 (UniProt P25490),inactive: 0
18,WAPAL (UniProt Q7Z5K2),inactive: 0
